# In the supplement of paper PMC4604168 (melanoma cell lines):
# The other results are listed elsewhere or left out. Repeats are few or missing, and single values can be far off.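 The apoptosis fraction was the count of cleaved-PARP antibody-stained nuclei relative to all DNA-stained nuclei, imaged in 1,536-well plates. Screening doses were set so most cells survived, and baseline and induced cleaved-PARP levels vary greatly across cell lines.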
# System: CBRC014 (line from a melanoma biopsy)
# Test: cleaved PARP positive nuclei fraction relative to DMSO control; melanoma cells; higher = more apoptosis
# Conditions: library dose: low library concentration; 72 h
row,Compound,cleaved PARP positive nuclei fraction [%]
1,"COc1ccc(-c2ccc3c(N4CCOCC4)nc(N4C[C@@H](C)O[C@@H](C)C4)nc3n2)cc1CO + CCCCCCCCCCCC1=C(O)C(=O)C=C(O)C1=O [Embelin] (first compound 0.02 µM, partner dose 1.2 µM)",220
2,"Cn1cc(/C=C2\C(=O)Nc3cccnc32)c2ccccc21 + CCCCCCCCCCCC1=C(O)C(=O)C=C(O)C1=O [Embelin] (first compound 0.4 µM, partner dose 1.2 µM)",108
3,"NCC(=O)Nc1ccc(-n2nc(C(F)(F)F)cc2-c2ccc3c(ccc4ccccc43)c2)cc1 + COc1ccc(-c2ccc3c(N4CCOCC4)nc(N4C[C@@H](C)O[C@@H](C)C4)nc3n2)cc1CO [KU0063794] (first compound 1 µM, partner dose 0.02 µM)",75.2
4,"CCN(CC)CCCCNc1ncc2cc(-c3cc(OC)cc(OC)c3)c(NC(=O)NC(C)(C)C)nc2n1 + Oc1nc(-c2ccc(C(F)(F)F)cc2)nc2c1CSCC2 [XAV939] (first compound 0.1 µM, partner dose 2 µM)",77.7
5,"O=C(O)c1ccc(-c2c[nH]c3ncc(-c4ccccc4)cc23)cc1C1CCCC1 + O=c1cc(-c2cccc3c2Sc2ccccc2S3)oc(N2CCOCC2)c1 [KU55933] (first compound 0.16 µM, partner dose 1 µM)",228
6,"CCN(CC)CCCCNc1ncc2cc(-c3cc(OC)cc(OC)c3)c(NC(=O)NC(C)(C)C)nc2n1 + O=S(=O)(c1ccccc1)N(CC(F)(F)F)c1ccc(C(O)(C(F)(F)F)C(F)(F)F)cc1 [T0901317] (first compound 0.1 µM, partner dose 1.4 µM)",97.8
